From article PMC3163267, “Structure and Organisation of SinR, the Master Regulator of Biofilm Formation in Bacillus subtilis” (Journal of Molecular Biology, 2011)
The exact form of at least one protein or probe is not confirmed. For some assays here: A negative result means that nothing was seen under these conditions.

Chains of the proteins cited; added tags and fusions are not shown. Lines headed by an entry give the natural chain unless they say otherwise; changes in a name come on top.
UniProt P06533: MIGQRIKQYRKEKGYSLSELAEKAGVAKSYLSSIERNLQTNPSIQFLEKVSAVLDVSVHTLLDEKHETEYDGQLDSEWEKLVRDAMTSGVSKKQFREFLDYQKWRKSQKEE

Experiments:
SinR (Bacillus subtilis) [1] = target: SinR (Bacillus subtilis) (UniProt P06533); experiment: fluorescence anisotropy; details: FA: 10 mM Hepes pH 8.0, 100 mM NaCl, 1 mM DTT, 1 mM EDTA, 5 nM HEX-DNA, 25 C; recombinant protein; residues 1-111
SinR (Bacillus subtilis) [2] = target: SinR (Bacillus subtilis) (UniProt P06533); experiment: EMSA; details: SinR 1-5 uM, DNA 0.5 uM; recombinant protein; residues 1-111
SinR + SinI = experiment: SPR; details: SinR pre-incubated with SinI above stoichiometric ratio; SPR: 10 mM Hepes pH 8.0, 150 mM NaCl, 3 mM EDTA, 0.05% P20; recombinant protein
SinR (Bacillus subtilis) [3] = target: SinR (Bacillus subtilis) (UniProt P06533); experiment: SPR (steady state); details: SPR: 10 mM Hepes pH 8.0, 150 mM NaCl, 3 mM EDTA, 0.05% P20; recombinant protein; residues 1-111
SinR (Bacillus subtilis) [4] = target: SinR (Bacillus subtilis) (UniProt P06533); experiment: SEC-MALLS; details: 1:1 SinR tetramer to duplex, complex peak 74 kDa; recombinant protein; residues 1-111

TTTGTTCTCTAAAGAGAACTTA (double strand) [inverted repeat SinRBM duplex, HEX]
Kd (SinR (Bacillus subtilis) [1]): 300 nM | binding result (SinR (Bacillus subtilis) [2]): binds

TTTGTTCTCTAAAGAGAACTTA (double strand) [inverted repeat SinRBM duplex, biotin]
binding result (SinR + SinI): no binding | Kd (SinR (Bacillus subtilis) [3]): 270 nM

TTTGTTCTCTAAAGAGAACTTA (double strand) [inverted repeat SinRBM duplex, label not stated]
binding result (SinR (Bacillus subtilis) [4]): binds
